Results are given in words; binding and its absence hold for the method and conditions named. Binding seen in cells or lysates may run through a third protein. Here binding means that the protein was enriched with, or labelled near, the bait; the list need not be complete.
What was measured:
[1] = biological target: ^HISTssO (tssO tagged at its native locus in B. fragilis NCTC 9343) (Bacteroides fragilis NCTC 9343) (UniProt Q5LDV3); assay: affinity purification with mass spectrometry; B. fragilis NCTC 9343 with TssN^STREP and ^HISTssO at native loci; total membranes solubilised with detergents; two-step affinity chromatography; elution analysed by LC-MS/MS of excised gel bands, two biological replicates
[2] = biological target: TssN^STREP (tssN tagged at its native locus in B. fragilis NCTC 9343) (Bacteroides fragilis NCTC 9343) (UniProt Q5LDU9); assay: as above

Sequences of proteins named here, by UniProt entry; tags and fusion partners are left off. A change or cut given only in a name is not applied to a line headed by its entry.
UniProt Q5LDV3: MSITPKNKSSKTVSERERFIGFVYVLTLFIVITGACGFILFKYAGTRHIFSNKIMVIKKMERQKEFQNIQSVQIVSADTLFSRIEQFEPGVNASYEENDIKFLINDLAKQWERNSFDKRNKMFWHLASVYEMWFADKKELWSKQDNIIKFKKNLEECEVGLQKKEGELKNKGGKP
UniProt Q5LDU9: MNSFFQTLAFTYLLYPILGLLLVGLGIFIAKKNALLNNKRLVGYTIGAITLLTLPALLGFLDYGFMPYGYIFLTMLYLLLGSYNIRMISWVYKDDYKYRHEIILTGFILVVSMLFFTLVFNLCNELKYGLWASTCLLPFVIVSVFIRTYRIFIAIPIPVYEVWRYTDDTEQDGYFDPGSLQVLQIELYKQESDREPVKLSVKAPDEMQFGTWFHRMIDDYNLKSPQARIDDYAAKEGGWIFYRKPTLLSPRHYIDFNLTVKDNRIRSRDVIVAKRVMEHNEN
UniProt Q5LDV2: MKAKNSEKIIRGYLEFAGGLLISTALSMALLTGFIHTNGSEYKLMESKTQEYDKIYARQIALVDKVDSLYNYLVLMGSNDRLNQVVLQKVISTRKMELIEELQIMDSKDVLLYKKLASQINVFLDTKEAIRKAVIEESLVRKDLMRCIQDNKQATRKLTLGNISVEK

With “TssQ (endogenous, B. fragilis) (from UniProt Q5LDV2)” the binding [1] was “binds” and the binding [2] was “binds”.
